The source of these data is PMC4811582.

Amino acid sequences for entries named in this document (tags omitted).
UniProt Q03135: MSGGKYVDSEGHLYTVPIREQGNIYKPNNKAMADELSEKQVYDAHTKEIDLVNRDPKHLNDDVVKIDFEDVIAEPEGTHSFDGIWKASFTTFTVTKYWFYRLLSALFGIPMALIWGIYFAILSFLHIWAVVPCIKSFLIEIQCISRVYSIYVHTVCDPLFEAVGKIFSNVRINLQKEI

For the experiment, the target named is caveolin-1 (human (endogenous in HUVEC)) (UniProt Q03135). In words: co-IP; HUVEC lysates pre-cleared with nonimmune IgG; immunoprecipitated with 2 ug anti-Cav1 antibody and protein A plus-Sepharose overnight at 4°C; immunoblot with anti-AdipoR1; cells with or without APN (5 ug/ml). In general terms: A western blot detects proteins with antibodies after separation by electrophoresis.

These are yes or no findings as the source states them, for the method shown. Binding seen in cells or lysates may run through a third protein. Some entries that bind do so weakly or less than the wild type.

B1: adiponectin receptor 1 (receptor, UniProt Q96A54 1-375)
chain: MSSHKGSVVAQGNGAPASNREADTVELAELGPLLEEKGKRVIANPPKAEEEQTCPVPQEEEEEVRVLTLPLQAHHAMEKMEEFVYKVWEGRWRVIPYDVLPDWLKDNDYLLHGHRPPMPSFRACFKSIFRIHTETGNIWTHLLGFVLFLFLGILTMLRPNMYFMAPLQEKVVFGMFFLGAVLCLSFSWLFHTVYCHSEKVSRTFSKLDYSGIALLIMGSFVPWLYYSFYCSPQPRLIYLSIVCVLGISAIIVAQWDRFATPKHRQTRAGVFLGLGLSGVVPTMHFTIAEGFVKATTVGQMGWFFLMAVMYITGAGLYAARIPERFFPGKFDIWFQSHQIFHVLVVAAAFVHFYGVSNLQEFRYGLEGGCTDDTLL
For the molecule B1, the binding result was “binds”.
